According to patent publication US8673951B2, “Isoxazoline-substituted benzamide compound and pesticide” (priority 2005, dated 2014):
Some entries share one result that the patent states for a list of compounds. At least one structure is not confirmed: it was looked up by name or label, or the drawing left a doubt.

test system: cabbage moth (Plutella xylostella); experiment: Insecticidal test against cabbage moth (Test Example 1); format: in vivo; conditions: chemical solution 10 ppm (**); cabbage leaf dip; second instar larva; after 6 days; 25° C.

Row | Structure (SMILES) | insecticidal rate (rate of dead insects) [%]
1 | COCN(C(=O)OC)C(=O)c1ccc(C2=NOC(c3cc(Cl)cc(Cl)c3)(C(F)(F)F)C2)cc1Cl (stereo not shown) [3-024] | ≥ 80
2 | COC(=O)N(CC#N)C(=O)c1ccc(C2=NOC(c3cc(Cl)cc(Cl)c3)(C(F)(F)F)C2)cc1Cl (stereo not shown) [3-025] | ≥ 80
3 | COCN(C(=O)OC)C(=O)c1ccc(C2=NOC(c3cc(Cl)cc(Cl)c3)(C(F)(F)F)C2)cc1Br (stereo not shown) [3-026] | ≥ 80
4 | COC(=O)N(CC#N)C(=O)c1ccc(C2=NOC(c3cc(Cl)cc(Cl)c3)(C(F)(F)F)C2)cc1Br (stereo not shown) [3-027] | ≥ 80
5 | COCN(C(=O)OC)C(=O)c1ccc(C2=NOC(c3cc(Cl)cc(Cl)c3)(C(F)(F)F)C2)cc1I (stereo not shown) [3-029] | ≥ 80
6 | COC(=O)N(CC#N)C(=O)c1ccc(C2=NOC(c3cc(Cl)cc(Cl)c3)(C(F)(F)F)C2)cc1I (stereo not shown) [3-030] | ≥ 80
7 | CCOCN(C(=O)OC)C(=O)c1ccc(C2=NOC(c3cc(Cl)cc(Cl)c3)(C(F)(F)F)C2)cc1C (stereo not shown) [3-031] | ≥ 80
8 | COC(=O)N(COC(=O)C(C)(C)C)C(=O)c1ccc(C2=NOC(c3cc(Cl)cc(Cl)c3)(C(F)(F)F)C2)cc1C (stereo not shown) [3-034] | ≥ 80
9 | COC(=O)N(CSC(C)=O)C(=O)c1ccc(C2=NOC(c3cc(Cl)cc(Cl)c3)(C(F)(F)F)C2)cc1C (stereo not shown) [3-037] | ≥ 80
10 | COC(=O)NCN(C(=O)OC)C(=O)c1ccc(C2=NOC(c3cc(Cl)cc(Cl)c3)(C(F)(F)F)C2)cc1C (stereo not shown) [3-039] | ≥ 80
11 | COC(=O)N(C(=O)CCl)C(=O)c1ccc(C2=NOC(c3cc(Cl)cc(Cl)c3)(C(F)(F)F)C2)cc1C (stereo not shown) [3-044] | ≥ 80
12 | COC(=O)N(C(=O)c1ccc(Cl)cc1)C(=O)c1ccc(C2=NOC(c3cc(Cl)cc(Cl)c3)(C(F)(F)F)C2)cc1C (stereo not shown) [3-047] | ≥ 80
13 | COC(=O)N(C(=O)c1ccc(C)cc1)C(=O)c1ccc(C2=NOC(c3cc(Cl)cc(Cl)c3)(C(F)(F)F)C2)cc1C (stereo not shown) [3-048] | ≥ 80
14 | COC(=O)N(C(=O)c1ccc(OC)cc1)C(=O)c1ccc(C2=NOC(c3cc(Cl)cc(Cl)c3)(C(F)(F)F)C2)cc1C (stereo not shown) [3-049] | ≥ 80
15 | COC(=O)N(C(=O)c1ccc([N+](=O)[O-])cc1)C(=O)c1ccc(C2=NOC(c3cc(Cl)cc(Cl)c3)(C(F)(F)F)C2)cc1C (stereo not shown) [3-050] | ≥ 80
16 | COC(=O)N(C(=O)OCCl)C(=O)c1ccc(C2=NOC(c3cc(Cl)cc(Cl)c3)(C(F)(F)F)C2)cc1C (stereo not shown) [3-051] | ≥ 80
17 | CN(C(=O)c1ccc(C2=NOC(c3cc(Cl)cc(Cl)c3)(C(F)(F)F)C2)cc1Cl)c1ncc(Cl)cn1 (stereo not shown) [5-015] | ≥ 80
18 | CC(=O)N(C(=O)c1ccc(C2=NOC(c3cc(Cl)cc(Cl)c3)(C(F)(F)F)C2)cc1Cl)c1ncc(Cl)cn1 (stereo not shown) [5-016] | ≥ 80
19 | COC(=O)N(C(=O)c1ccc(C2=NOC(c3cc(Cl)cc(Cl)c3)(C(F)(F)F)C2)cc1Cl)c1ncc(Cl)cn1 (stereo not shown) [5-017] | ≥ 80

same assay, conditions: chemical solution 100 ppm (*); cabbage leaf dip; second instar larva; after 6 days; 25° C.

Row | Structure (SMILES) | insecticidal rate (rate of dead insects) [%]
20 | Cc1cc(C2=NOC(c3cc(Cl)cc(Cl)c3)(C(F)(F)F)C2)ccc1C(=O)N(C)C(=O)OCCC#N (stereo not shown) [3-021] | ≥ 80
21 | C#CCOC(=O)N(C)C(=O)c1ccc(C2=NOC(c3cc(Cl)cc(Cl)c3)(C(F)(F)F)C2)cc1C (stereo not shown) [3-022] | ≥ 80
22 | COC(=O)N(C)C(=O)c1ccc(C2=NOC(c3cc(Cl)cc(Cl)c3)(C(F)(F)F)C2)cc1I (stereo not shown) [3-028] | ≥ 80
23 | COC(=O)N(COC(C)=O)C(=O)c1ccc(C2=NOC(c3cc(Cl)cc(Cl)c3)(C(F)(F)F)C2)cc1C (stereo not shown) [3-033] | ≥ 80
24 | COC(=O)N(CSC)C(=O)c1ccc(C2=NOC(c3cc(Cl)cc(Cl)c3)(C(F)(F)F)C2)cc1C (stereo not shown) [3-035] | ≥ 80
25 | COC(=O)N(CS(C)(=O)=O)C(=O)c1ccc(C2=NOC(c3cc(Cl)cc(Cl)c3)(C(F)(F)F)C2)cc1C (stereo not shown) [3-036] | ≥ 80
26 | CCOC(=S)SCN(C(=O)OC)C(=O)c1ccc(C2=NOC(c3cc(Cl)cc(Cl)c3)(C(F)(F)F)C2)cc1C (stereo not shown) [3-038] | ≥ 80
27 | COC(=O)N(CC(=O)c1ccccc1)C(=O)c1ccc(C2=NOC(c3cc(Cl)cc(Cl)c3)(C(F)(F)F)C2)cc1C (stereo not shown) [3-040] | ≥ 80
28 | CCC(=O)N(C(=O)OC)C(=O)c1ccc(C2=NOC(c3cc(Cl)cc(Cl)c3)(C(F)(F)F)C2)cc1C (stereo not shown) [3-041] | ≥ 80
29 | CCCC(=O)N(C(=O)OC)C(=O)c1ccc(C2=NOC(c3cc(Cl)cc(Cl)c3)(C(F)(F)F)C2)cc1C (stereo not shown) [3-042] | ≥ 80
30 | COC(=O)N(C(=O)c1ccc(C2=NOC(c3cc(Cl)cc(Cl)c3)(C(F)(F)F)C2)cc1C)C(=O)C(C)C (stereo not shown) [3-043] | ≥ 80
31 | COC(=O)N(C(=O)CSC)C(=O)c1ccc(C2=NOC(c3cc(Cl)cc(Cl)c3)(C(F)(F)F)C2)cc1C (stereo not shown) [3-045] | ≥ 80
32 | COC(=O)N(C(=O)c1ccccc1)C(=O)c1ccc(C2=NOC(c3cc(Cl)cc(Cl)c3)(C(F)(F)F)C2)cc1C (stereo not shown) [3-046] | ≥ 80
33 | COC(=O)N(C(=O)OCCCl)C(=O)c1ccc(C2=NOC(c3cc(Cl)cc(Cl)c3)(C(F)(F)F)C2)cc1C (stereo not shown) [3-052] | ≥ 80
34 | COC(=O)N(SC(Cl)(Cl)Cl)C(=O)c1ccc(C2=NOC(c3cc(Cl)cc(Cl)c3)(C(F)(F)F)C2)cc1C (stereo not shown) [3-053] | ≥ 80
35 | CCOC(=O)N(COC)C(=O)c1ccc(C2=NOC(c3cc(Cl)cc(Cl)c3)(C(F)(F)F)C2)cc1C (stereo not shown) [3-054] | ≥ 80
36 | CCOC(=O)N(C(=O)CC)C(=O)c1ccc(C2=NOC(c3cc(Cl)cc(Cl)c3)(C(F)(F)F)C2)cc1C (stereo not shown) [3-055] | ≥ 80
37 | CCOC(=O)N(C(=O)c1ccc(C2=NOC(c3cc(Cl)cc(Cl)c3)(C(F)(F)F)C2)cc1C)C(=O)C(C)(C)C (stereo not shown) [3-056] | ≥ 80
38 | CCOC(=O)N(C(=O)COC)C(=O)c1ccc(C2=NOC(c3cc(Cl)cc(Cl)c3)(C(F)(F)F)C2)cc1C (stereo not shown) [3-057] | ≥ 80
39 | CCOC(=O)N(C(=O)OC)C(=O)c1ccc(C2=NOC(c3cc(Cl)cc(Cl)c3)(C(F)(F)F)C2)cc1C (stereo not shown) [3-058] | ≥ 80

Row | Structure (SMILES) | insecticidal rate (rate of dead insects) [%]
40 | Cc1cc(C2=NOC(c3cc(Cl)cc(Cl)c3)(C(F)(F)F)C2)ccc1C(=O)N(CC#N)C(=O)OC(C)C (stereo not shown) [3-059] | ≥ 80
41 | CCC(=O)N(C(=O)OC(C)C)C(=O)c1ccc(C2=NOC(c3cc(Cl)cc(Cl)c3)(C(F)(F)F)C2)cc1C (stereo not shown) [3-060] | ≥ 80
42 | Cc1cc(C2=NOC(c3cc(Cl)cc(Cl)c3)(C(F)(F)F)C2)ccc1C(=O)N(C(=O)OC(C)C)C(=O)C(C)(C)C (stereo not shown) [3-061] | ≥ 80
43 | CCOC(=O)N(C(=O)OC(C)C)C(=O)c1ccc(C2=NOC(c3cc(Cl)cc(Cl)c3)(C(F)(F)F)C2)cc1C (stereo not shown) [3-062] | ≥ 80
44 | CCN(C(=O)OC(C)(C)C)C(=O)c1ccc(C2=NOC(c3cc(Cl)cc(Cl)c3)(C(F)(F)F)C2)cc1C (stereo not shown) [3-063] | ≥ 80
45 | COCN(C(=O)OC(C)(C)C)C(=O)c1ccc(C2=NOC(c3cc(Cl)cc(Cl)c3)(C(F)(F)F)C2)cc1C (stereo not shown) [3-064] | ≥ 80
46 | CC(=O)N(C(=O)OC(C)(C)C)C(=O)c1ccc(C2=NOC(c3cc(Cl)cc(Cl)c3)(C(F)(F)F)C2)cc1C (stereo not shown) [3-066] | ≥ 80
47 | CCC(=O)N(C(=O)OC(C)(C)C)C(=O)c1ccc(C2=NOC(c3cc(Cl)cc(Cl)c3)(C(F)(F)F)C2)cc1C (stereo not shown) [3-067] | ≥ 80
48 | Cc1cc(C2=NOC(c3cc(Cl)cc(Cl)c3)(C(F)(F)F)C2)ccc1C(=O)N(C(=O)CC(F)(F)F)C(=O)OC(C)(C)C (stereo not shown) [3-068] | ≥ 80
49 | COC(=O)N(C(=O)OC(C)(C)C)C(=O)c1ccc(C2=NOC(c3cc(Cl)cc(Cl)c3)(C(F)(F)F)C2)cc1C (stereo not shown) [3-069] | ≥ 80
50 | C=CCN(C(=O)c1ccc(C2=NOC(c3cc(Cl)cc(Cl)c3)(C(F)(F)F)C2)cc1C)c1ccc(F)cc1 (stereo not shown) [5-009] | ≥ 80
51 | CC(=O)N(C(=O)c1ccc(C2=NOC(c3cc(Cl)cc(Cl)c3)(C(F)(F)F)C2)cc1C)c1ccc(F)cc1 (stereo not shown) [5-010] | ≥ 80
52 | COC(=O)N(C(=O)c1ccc(C2=NOC(c3cc(Cl)cc(Cl)c3)(C(F)(F)F)C2)cc1C)c1ccc(F)cc1 (stereo not shown) [5-011] | ≥ 80
53 | Cc1cc(C2=NOC(c3cc(Cl)cc(Cl)c3)(C(F)(F)F)C2)ccc1C(=O)N(C)c1ccccn1 (stereo not shown) [5-012] | ≥ 80
54 | CC(=O)N(C(=O)c1ccc(C2=NOC(c3cc(Cl)cc(Cl)c3)(C(F)(F)F)C2)cc1C)c1ncccn1 (stereo not shown) [5-013] | ≥ 80
55 | CCC(=O)N(C(=O)c1ccc(C2=NOC(c3cc(Cl)cc(Cl)c3)(C(F)(F)F)C2)cc1C)c1ccc(F)cc1 (stereo not shown) [5-018] | ≥ 80
56 | Cc1cc(C2=NOC(c3cc(Cl)cc(Cl)c3)(C(F)(F)F)C2)ccc1C(=O)N(C(=O)C1CC1)c1ccc(F)cc1 (stereo not shown) [5-019] | ≥ 80
57 | Cc1cc(C2=NOC(c3cc(Cl)cc(Cl)c3)(C(F)(F)F)C2)ccc1C(=O)N(C(=O)CC(C)C)c1ccc(F)cc1 (stereo not shown) [5-020] | ≥ 80
58 | COCC(=O)N(C(=O)c1ccc(C2=NOC(c3cc(Cl)cc(Cl)c3)(C(F)(F)F)C2)cc1C)c1ccc(F)cc1 (stereo not shown) [5-021] | ≥ 80
59 | Cc1cc(C2=NOC(c3cc(Cl)cc(Cl)c3)(C(F)(F)F)C2)ccc1C(=O)N(C(N)=O)c1ccc(F)cc1 (stereo not shown) [5-022] | ≥ 80

same assay, conditions: chemical solution 500 ppm; cabbage leaf dip; second instar larva; after 6 days; 25° C.

Row | Structure (SMILES) | insecticidal rate (rate of dead insects) [%]
60 | Cc1cc(C2=NOC(c3cc(Cl)cc(Cl)c3)(C(F)(F)F)C2)ccc1C(=O)N(C)C(=O)OCc1ccc(F)cc1 (stereo not shown) [3-023] | ≥ 80
61 | Cc1cc(C2=NOC(c3cc(Cl)cc(Cl)c3)(C(F)(F)F)C2)ccc1C(=O)N(Cc1ccccc1)C(=O)OC(C)(C)C (stereo not shown) [3-065] | ≥ 80
